Measured values reported in PubChem BioAssay AID1671190 (National Center for Advancing Translational Sciences (NCATS), 2021).
Several values for one entry are separate records, joined by “and”; a condition that tells them apart may be missing. Identical values can stand only once. Hit rate of the full screen: of about 580,000 compounds, about 6,100 (1.1%) were called active. The shares of active, inactive and inconclusive entries below differ from those in the screen. The call rests on the fitted dose curve; in most records, active means well fitted inhibition curve with a large enough effect; inconclusive means small, poorly fitted or top-dose-only effect, or another doubt; inactive means no such curve, though single readings can be large or run the other way. Where the call is inconclusive, the potency comes from a doubtful curve fit.

By UniProt entry, the sequences of proteins in these tests, tags left out.
UniProt P18054, whole entry, looked up: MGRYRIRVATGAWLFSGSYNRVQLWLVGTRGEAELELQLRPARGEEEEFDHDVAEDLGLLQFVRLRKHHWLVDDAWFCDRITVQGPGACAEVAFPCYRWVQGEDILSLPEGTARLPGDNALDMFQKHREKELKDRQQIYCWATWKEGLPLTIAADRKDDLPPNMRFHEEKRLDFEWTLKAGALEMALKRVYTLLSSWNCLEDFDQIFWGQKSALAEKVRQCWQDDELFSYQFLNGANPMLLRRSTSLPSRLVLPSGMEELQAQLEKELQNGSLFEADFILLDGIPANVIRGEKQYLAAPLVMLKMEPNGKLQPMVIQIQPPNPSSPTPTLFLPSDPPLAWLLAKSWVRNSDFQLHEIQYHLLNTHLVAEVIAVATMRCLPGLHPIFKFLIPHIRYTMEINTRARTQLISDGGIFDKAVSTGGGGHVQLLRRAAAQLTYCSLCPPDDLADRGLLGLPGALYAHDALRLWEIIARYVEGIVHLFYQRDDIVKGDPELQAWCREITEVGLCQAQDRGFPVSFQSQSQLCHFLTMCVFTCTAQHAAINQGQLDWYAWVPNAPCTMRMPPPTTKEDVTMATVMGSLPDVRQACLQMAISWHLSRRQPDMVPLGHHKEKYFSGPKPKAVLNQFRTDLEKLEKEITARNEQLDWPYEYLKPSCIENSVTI

target: Polyunsaturated fatty acid lipoxygenase ALOX12 (Homo sapiens) (UniProt P18054); assay: Primary qHTS assay for inhibitors of human arachidonate 12S-lipoxygenase (ALOX12): Round 2; details: purified 12hLO, xylenol orange hydroperoxide absorbance; activity change, negative = inhibition: at 108 µM (top of the series) unless noted
Method in brief: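 Purified human 12hLO (150 nM final) in 25 mM Hepes, 0.01% Triton X-100, pH 7.0 was preincubated 15 min at room temperature with compound. Then 40 uM arachidonic acid was added, 30 min. Hydroperoxide was read by Fe-XO absorbance ratio 573/405 nm.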
On the % scale 0 is the no-effect control and ±100 the full control effect; potency means the concentration at half of the fitted maximal effect.

SMILES | activity change, negative = inhibition | Potency
Cc1cc(C)cc(NC(=O)C2CCCN2S(=O)(=O)c2ccc3c(c2)CCCC(=O)N3)c1 (stereo not drawn) | inactive: -25.9% | –
Cc1cc(C(=O)N2CC(C(=O)NCCc3ccncc3)C3(CCOCC3)C2)nn1C (stereo not drawn) | – | inconclusive: 11.2 µM [inhibitor, partial curve]
Cc1ccc(C(=O)OCCOc2ccccc2Cl)cc1O | – | inconclusive: 3.98 µM [inhibitor, full curve, poor fit]
CS(=O)(=O)N1CCCc2cc(C(=O)c3cc4ccccc4o3)ccc21 | – | inconclusive: 8.91 µM [inhibitor, full curve, poor fit]
Cn1cccc1/C=C(\C#N)c1ccc(Cl)cc1 | – | inconclusive: 50.1 µM [inhibitor, partial curve, poor fit]
CCc1ccccc1NC1=NCC(=O)N1Cc1ccc2c(c1)OCO2 | – | inconclusive: 35.5 µM [inhibitor, partial curve, poor fit]
COc1ccc(/C=N/Nc2ccc(C(=O)O)cc2)c(OC)c1OC | inactive: 0% | –
CCN1CCN(c2cc(C(C)C)nc3c(-c4ccccc4)c(C)nn23)CC1 | – | inconclusive: 112 µM [inhibitor, single point]
COc1ccc2c(c1)Cc1sc(NC(=O)c3cccc(C)c3)nc1-2 | – | inconclusive: 79.4 µM [inhibitor, partial curve, poor fit]
COc1ccc(-c2ccnc(-c3ccc(O)cc3)n2)cc1 | inactive: -17.7% | –
O=[N+]([O-])c1ccc(CSc2ncnc3ccccc23)cc1 | – | inconclusive: 35.5 µM [inhibitor, partial curve, poor fit]
O=C1CO[C@H]2CN(CCCc3ccccc3)C[C@H]2N1Cc1ccc(F)cc1 | – | inconclusive: 70.8 µM [inhibitor, partial curve]
COc1ccc(OCCOC(=O)C2Cc3ccccc3C(=O)O2)cc1 (stereo not drawn) | – | inconclusive: 126 µM [inhibitor, single point]
COc1ccc(NC(=O)CSCc2ccc(Br)cc2)c(OC)c1 | inactive: 2.43% | –
CC1CCN(CCCNCc2cccnc2)CC1 | – | inconclusive: 100 µM [inhibitor, single point]
O=C(c1cccc(Cl)c1)N(Cc1ccco1)c1ccccc1 | – | inconclusive: 39.8 µM [inhibitor, partial curve, poor fit]
COc1ccccc1N1CCN(C(=O)C[C@@H]2O[C@H](CNC(=O)c3cccc(F)c3)[C@@H](O)[C@H]2O)CC1 | – | inconclusive: 70.8 µM [inhibitor, partial curve, poor fit]
CN(Cc1ccco1)S(=O)(=O)c1ccc(CN2C(=O)c3cccnc3C2=O)s1 | – | inconclusive: 35.5 µM [inhibitor, partial curve, poor fit]
Fc1ccc(N/N=C/c2ccncc2)c(F)c1 | – | inconclusive: 50.1 µM [inhibitor, single point]
CNC(=O)Cn1c(CO)cnc1SCc1ccccc1Cl | inactive: 1.19% | –
COC(=O)[C@H](CC1CCCCC1)NC(=O)[C@@H]1CN(C(=O)c2cccnc2)CCN1S(C)(=O)=O | – | inconclusive: 25.1 µM [inhibitor, full curve]
Cc1ccc(NC(=O)/C(C#N)=C/c2ccc(C)s2)c(C)c1 | inactive: 6.38% | –
Cc1ccc(OCC(=O)OC2=C(C(=O)c3ccccc3)N(C)S(=O)(=O)c3ccccc32)cc1 | – | inconclusive: 10 µM [inhibitor, full curve]

SMILES | activity change, negative = inhibition | Potency
CC(=O)c1ccccc1NS(=O)(=O)c1ccc2c(c1)CC(=O)N2 | – | inconclusive: 79.4 µM [inhibitor, single point]
CC(C)n1c(SCCCc2ccccc2)nc2c1c(=O)[nH]c(=O)n2C | – | inconclusive: 50.1 µM [inhibitor, partial curve, poor fit] and inconclusive: 112 µM [inhibitor, single point]
CCOC(=O)CN1N=C(/C=C/c2ccc(C(C)C)cc2)CCC1=O | inactive: -8.61% | –
CCc1ccccc1S(=O)(=O)N1CCN(C2CCN(Cc3ccccn3)C2=O)CC1 (stereo not drawn) | – | inconclusive: 22.4 µM [inhibitor, full curve]
CN=C1C([N+](=O)[O-])=CC=C2C1=NC1(CCCCC1)N2O | inactive: -31.7% | –
COc1cccc(CNc2ccc3nc(-c4ccc(N)cc4)c(OC)n3n2)c1 | – | inactive
CCCn1c(NCc2ccccn2)nc2ccccc21 | – | inconclusive: 22.4 µM [inhibitor, single point]
COc1cccc(N2CC(C(=O)N3CCC4(CC3)CC(=O)c3ccccc3O4)CC2=O)c1 (stereo not drawn) | inactive: 10.7% | –
O=C(CCCSc1nnc(-c2cccs2)n1CC1CCCO1)c1ccccc1 (stereo not drawn) | inactive: 11% | –
COc1ccnc(Oc2ccccc2)c1C(=O)N/C=N/OCc1ccc(F)cc1Cl | – | inconclusive: 100 µM [inhibitor, partial curve, poor fit]
Cc1ccc(C)c(/C=N/NC(=S)NCCc2ccccc2)c1 | – | inconclusive: 28.2 µM [inhibitor, partial curve, poor fit]
O=C(Nc1ccc(Cc2ccncc2)cc1)c1cccs1 | inactive: 4.74% | –
Cc1cc2cc(CNC(=S)Nc3ccc(OC(F)F)cc3)ccc2n1C | – | active: 35.5 µM
COc1ccccc1NC(=S)N1CCN(Cc2ccccc2)CC1 | inactive: -16.3% | –
NS(=O)(=O)c1cccc(NC(=O)COC(=O)CCC2CCCC2)c1 | – | inconclusive: 100 µM [inhibitor, single point]
Brc1ccccc1-c1nn2c(Cn3cnc4ccccc43)nnc2s1 | – | active: 11.2 µM
O=[N+]([O-])c1cc(-c2ccc(/C=N/c3nc4ccccn4c3-c3ccco3)o2)ccc1Cl | – | inconclusive: 4.47 µM [inhibitor, full curve, poor fit]
COc1ccc(CC(=O)Nc2ccc3ncnc(N4CCCC4)c3c2)cc1Cl | inactive: 11.4% | –
COc1ncccc1-c1nccc2c(=O)cc(N(C)C3CCOCC3)oc12 | – | inconclusive: 28.2 µM [inhibitor, partial curve, poor fit]
COc1ccc(CNc2cc(C)nc3ccc(OC)cc23)cc1 | – | inconclusive: 141 µM [inhibitor, single point]
CCN1C(=O)[C@H]2[C@@H](c3ccc(C)cc3)N[C@]3(CCCN(Cc4ccccc4)C3=O)[C@H]2C1=O | – | inconclusive: 39.8 µM [inhibitor, partial curve, poor fit]
Cc1ccccc1NC(=O)Cc1nc(COC(=O)c2ccccn2)cs1 | – | inconclusive: 8.91 µM [inhibitor, full curve]
COc1ccc(/C(C)=N/NC(=S)NCCc2ccccc2)c(O)c1 | – | inconclusive: 31.6 µM [inhibitor, partial curve, poor fit]

SMILES | activity change, negative = inhibition | Potency
Cc1cnc(N2CC3CCC(C2)N3CC(F)(F)F)s1 | – | inconclusive: 14.1 µM [inhibitor, full curve, poor fit]
Cc1csc(-c2cc(C(=O)NCc3ccc(F)cc3)n[nH]2)c1 | – | inconclusive: 31.6 µM [inhibitor, full curve, poor fit]
CSc1ccc(/C=N/NC(=O)CN2CCN(Cc3ccc(Cl)cc3)CC2)cc1 | inactive: 28.9% | –
CCS(=O)(=O)c1ccc2oc(Nc3ccccc3C)nc2c1 | inactive: -2.46% | –
O=C(O)CSc1c2c(nc3cc(C(=O)Nc4cccc(C(F)(F)F)c4)ccc13)CCC2 | – | active: 44.7 µM
Nc1c(C(=O)Nc2ccc(S(=O)(=O)N3CCCC3)cc2)sc2nc3ccc(OC(F)(F)F)cc3cc12 | – | inconclusive: 79.4 µM [inhibitor, single point]
CCOc1ccc(NC(=S)NNC(=O)c2cc(Br)ccc2Cl)cc1 | inactive: 13.5% | –
CCOC(=O)c1cnc2nc(NCc3cccc(Br)c3)[nH]n2c1=O | – | inconclusive: 70.8 µM [inhibitor, partial curve, poor fit]
CCOC(=O)N1CCN(C(=O)CN(c2cc(Cl)cc(Cl)c2)S(C)(=O)=O)CC1 | – | inconclusive: 112 µM [inhibitor, single point]
O=C(NCCCO)C(=O)c1c(-c2ccccc2)cc2ccccn12 | inactive: -20.1% | –
CCOC(=O)C1=C(C)N=c2s/c(=C\c3cccc(OCC(=O)O)c3)c(=O)n2C1c1ccccc1 (stereo not drawn) | – | inconclusive: 70.8 µM [inhibitor, partial curve, poor fit]
O=C(CSc1nc(-c2ccccc2)c(-c2ccccc2)o1)Nc1nnc(-c2ccccc2)s1 | inactive: 1.63% | –
COc1ccc(/C=C/C(=O)Nc2cc(S(=O)(=O)N3CCOCC3)ccc2OC)cc1 | – | inconclusive: 112 µM [inhibitor, single point]
Cc1ccc(NC(=O)COC(=O)c2ccccc2Cl)cc1S(=O)(=O)N(C)C | – | inconclusive: 2.24 µM [inhibitor, full curve, poor fit]
O=C(CC1CCCC1)NCC1CCCCC(=O)N1 (stereo not drawn) | inactive: -12.2% | –
COc1ccc(NC(=O)COc2ccc(C(C)C)cc2)c2cccnc12 | inactive: 8.08% | –
Cc1ccc(Nc2c(-c3ccsc3)nc3c(C)cccn23)cc1 | – | inconclusive: 126 µM [inhibitor, single point]
O=S(Cc1ccc(Cl)cc1)Cc1c(Cl)cccc1Cl (stereo not drawn) | – | inconclusive: 100 µM [inhibitor, partial curve, poor fit]
OCC1OC(n2cnc3c(=S)nc[nH]c32)CC1O (stereo not drawn) | – | inconclusive: 20 µM [inhibitor, partial curve]
O=C1OCCN1C(=O)[C@H]1[C@H](c2ccc([N+](=O)[O-])cc2)C(c2cccc(Cl)c2)=NN1c1ccc(Br)cc1 | – | inconclusive: 89.1 µM [inhibitor, single point]
O=C(Nc1cc(C(F)(F)F)ccc1-n1cnc2ccccc21)c1ccccc1 | – | inconclusive: 0.112 µM [inhibitor, full curve, poor fit]
CCCCCSc1nc2sc3c(c2c(=O)n1-c1ccc(OC)cc1)CCN(C(C)=O)C3 | – | inconclusive: 28.2 µM [inhibitor, partial curve, poor fit]
